Here are results for 1 sequence from publication PMC10752894.

Chains of the proteins cited; added tags and fusions are not shown. A line that says so, or that is headed by a name, gives the form on record, which may keep a tag or linker.
Polγ holoenzyme WT (Polγ_A + Polγ_B) (Homo sapiens), one chain, as listed by the source, chain 1 of 2: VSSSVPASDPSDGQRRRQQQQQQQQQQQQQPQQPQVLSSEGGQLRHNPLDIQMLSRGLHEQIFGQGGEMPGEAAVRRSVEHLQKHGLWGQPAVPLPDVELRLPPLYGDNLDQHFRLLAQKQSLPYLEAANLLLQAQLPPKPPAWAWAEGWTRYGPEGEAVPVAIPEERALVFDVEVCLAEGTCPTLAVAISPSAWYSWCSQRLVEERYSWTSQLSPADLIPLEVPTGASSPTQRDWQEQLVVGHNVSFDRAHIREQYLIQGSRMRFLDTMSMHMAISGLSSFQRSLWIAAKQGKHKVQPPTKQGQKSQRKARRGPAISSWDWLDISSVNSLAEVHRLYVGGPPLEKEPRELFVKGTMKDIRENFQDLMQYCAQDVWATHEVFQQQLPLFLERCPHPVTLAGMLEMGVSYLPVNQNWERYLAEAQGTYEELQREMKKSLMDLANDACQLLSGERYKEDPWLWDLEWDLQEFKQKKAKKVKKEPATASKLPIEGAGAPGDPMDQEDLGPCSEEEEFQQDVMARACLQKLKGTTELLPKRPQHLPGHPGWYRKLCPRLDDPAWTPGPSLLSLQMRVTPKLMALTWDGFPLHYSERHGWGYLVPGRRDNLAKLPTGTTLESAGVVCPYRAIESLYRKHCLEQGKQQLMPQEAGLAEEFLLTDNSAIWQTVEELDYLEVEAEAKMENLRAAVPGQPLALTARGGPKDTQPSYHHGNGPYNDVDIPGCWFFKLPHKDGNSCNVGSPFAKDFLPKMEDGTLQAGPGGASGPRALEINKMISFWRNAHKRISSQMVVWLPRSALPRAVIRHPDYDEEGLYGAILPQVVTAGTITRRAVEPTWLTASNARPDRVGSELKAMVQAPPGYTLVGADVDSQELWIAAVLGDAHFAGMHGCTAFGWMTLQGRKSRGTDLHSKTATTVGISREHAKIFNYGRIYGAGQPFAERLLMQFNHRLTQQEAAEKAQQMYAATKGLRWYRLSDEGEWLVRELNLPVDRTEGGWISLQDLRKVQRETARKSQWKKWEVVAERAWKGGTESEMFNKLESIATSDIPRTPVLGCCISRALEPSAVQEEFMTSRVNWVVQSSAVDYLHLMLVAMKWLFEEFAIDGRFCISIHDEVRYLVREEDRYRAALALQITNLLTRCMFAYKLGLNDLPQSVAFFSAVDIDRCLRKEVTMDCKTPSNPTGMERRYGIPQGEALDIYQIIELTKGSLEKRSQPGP
Polγ holoenzyme WT (Polγ_A + Polγ_B) (Homo sapiens), one chain, as listed by the source, chain 2 of 2: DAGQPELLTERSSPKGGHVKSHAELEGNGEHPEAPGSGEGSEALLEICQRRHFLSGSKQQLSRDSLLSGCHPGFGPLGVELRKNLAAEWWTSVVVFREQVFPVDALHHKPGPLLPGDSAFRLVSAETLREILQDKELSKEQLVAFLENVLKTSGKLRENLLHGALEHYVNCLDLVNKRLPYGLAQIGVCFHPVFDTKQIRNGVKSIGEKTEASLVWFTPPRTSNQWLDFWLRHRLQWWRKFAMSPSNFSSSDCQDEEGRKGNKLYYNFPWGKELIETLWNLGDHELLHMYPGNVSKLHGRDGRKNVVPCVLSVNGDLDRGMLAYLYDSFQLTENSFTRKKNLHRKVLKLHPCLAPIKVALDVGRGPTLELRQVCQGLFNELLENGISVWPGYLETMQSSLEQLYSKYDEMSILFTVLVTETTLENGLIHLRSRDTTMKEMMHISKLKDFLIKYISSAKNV

The exact form of at least one protein or probe is not confirmed. At least one verdict rests on a figure or table, not on a statement of the authors.

The data set deals with Polγ holoenzyme WT (Polγ_A + Polγ_B) (Homo sapiens). Briefly: EMSA. Particulars: 10 mM Mg2+; EMSA: 40 mM Tris-HCl pH 7.9, 60 mM NaCl, 10 mM MgCl2, 5% glycerol, 20 mM 2-mercaptoethanol, 0.1 mg/ml BSA, 150 nM Cy3 scaffold, 10 min room temperature; 0.5% agarose; recombinant protein; protein details: N-terminal His (both subunits); label: 5'-Cy3 on DNA24.

“GGTACAACTTGACGACATAGCGTG / CGGTCGAGTCACGACTCCGATTATCACGCTATGTCGTCAAGTTGTACC [DNA24/DNA24TS]”: the binding result was “binds”.
